{
  "sequences": {"note": "Sequences of proteins named here, by UniProt entry; tags and fusion partners are left off.", "UniProt Q9FX32": "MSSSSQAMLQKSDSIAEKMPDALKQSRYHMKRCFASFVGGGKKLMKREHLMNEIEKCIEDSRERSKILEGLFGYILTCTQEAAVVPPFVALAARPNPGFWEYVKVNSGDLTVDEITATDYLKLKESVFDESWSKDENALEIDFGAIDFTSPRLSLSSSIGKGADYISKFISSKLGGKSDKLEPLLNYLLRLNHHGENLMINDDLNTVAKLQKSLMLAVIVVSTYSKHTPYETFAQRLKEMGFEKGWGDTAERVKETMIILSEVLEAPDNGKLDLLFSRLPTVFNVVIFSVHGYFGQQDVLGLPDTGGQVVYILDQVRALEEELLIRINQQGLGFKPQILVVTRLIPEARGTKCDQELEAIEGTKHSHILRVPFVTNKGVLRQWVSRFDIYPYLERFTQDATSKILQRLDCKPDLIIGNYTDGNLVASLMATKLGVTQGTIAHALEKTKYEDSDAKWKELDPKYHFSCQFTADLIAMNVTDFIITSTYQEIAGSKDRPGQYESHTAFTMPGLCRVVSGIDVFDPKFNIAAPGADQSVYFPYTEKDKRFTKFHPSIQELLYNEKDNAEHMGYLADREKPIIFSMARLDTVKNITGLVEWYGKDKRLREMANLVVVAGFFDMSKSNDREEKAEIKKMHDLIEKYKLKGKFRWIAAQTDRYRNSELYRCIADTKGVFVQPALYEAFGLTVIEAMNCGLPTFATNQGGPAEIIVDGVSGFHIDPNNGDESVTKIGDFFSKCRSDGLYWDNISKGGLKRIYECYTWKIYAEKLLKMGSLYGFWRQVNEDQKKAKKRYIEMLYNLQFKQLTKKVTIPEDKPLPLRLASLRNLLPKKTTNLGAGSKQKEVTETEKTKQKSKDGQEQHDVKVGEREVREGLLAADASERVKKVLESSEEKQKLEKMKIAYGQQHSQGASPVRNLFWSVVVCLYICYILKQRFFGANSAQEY"},
  "source": "paper doi:10.1101/2022.08.05.502996",
  "biological_target": "T1, PDLP6-YFP (Arabidopsis thaliana) (UniProt Q9ZU94)",
  "T1 sequence": "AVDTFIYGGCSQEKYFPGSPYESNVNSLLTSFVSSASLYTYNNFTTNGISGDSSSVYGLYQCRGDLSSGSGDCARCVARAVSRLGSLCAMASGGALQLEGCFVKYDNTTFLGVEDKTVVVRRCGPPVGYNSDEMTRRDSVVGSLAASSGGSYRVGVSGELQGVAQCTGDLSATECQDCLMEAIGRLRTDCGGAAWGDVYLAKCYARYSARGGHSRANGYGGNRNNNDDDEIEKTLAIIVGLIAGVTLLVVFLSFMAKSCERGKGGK",
  "experiment": "co-IP",
  "note": "Results are given in words; binding and its absence hold for the method and conditions named. In cells and extracts the contact can be indirect. Some results given as binding are weak or reduced against the parent protein; the word gives no strength. Sequences can lack the tags named with a protein.",
  "data": [
    {"substance": "SUS6-HF (from UniProt Q9FX32 1-942) (enzyme)", "values": [
      {"measurement": "binding", "value": "binds"}
    ]}
  ]
}
